Assay results reported in the supplement of paper PMC11348887.
Several values for one entry are separate records, joined by “and”; a condition that tells them apart may be missing. Identical values can stand only once. This is one part of the list. Small differences around the control level are noise.

Key:
Details in all cases: 5 µM; treatment: days 7-14 after plating, readout day 21
[1] = test system: hPSC-derived cortical neurons (WA09); experiment: nucleus area z-score vs screen plate; higher = larger nuclei (more mature)
[2] = test system: hPSC-derived cortical neurons (WA09); experiment: total neurite length per nucleus (MAP2) z-score; higher = more neurite growth
[3] = test system: hPSC-derived cortical neurons (WA09); experiment: nucleus roundness z-score vs screen plate; higher = rounder nuclei (more mature)
[4] = test system: hPSC-derived cortical neurons (WA09); experiment: KCl-induced FOS+/EGR-1+ double-positive nuclei fraction z-score (KCl minus unstimulated); higher = stronger activity-induced IEG response

| Compound | nucleus area z-score [1] | total neurite length per nucleus (z-score) [2] | nucleus roundness z-score [3] | KCl-induced FOS+/EGR-1+ double-positive nuclei fraction z-score [4] |
| --- | --- | --- | --- | --- |
| O=C1CCc2ccc(OCCCCN3CCN(c4cccc(Cl)c4Cl)CC3)cc2N1 [Aripiprazole] | 1.09 | 0.0809 | 0.00313 | -0.485 |
| Cc1ccccc1N=Nc1ccc(NC(=O)c2ccnn2C)c(C)c1 | -0.164 | 0.251 | -0.403 | 0.299 |
| NC(=O)c1cnccn1 [Pyrazinamide] | -0.00948 | 0.453 | 0.652 | 1.41 |
| Cn1c(=O)c(F)c(Nc2ccc(I)cc2F)c2c(=O)n(C[C@@H](O)CO)cnc21 | -5.84 | -1.93 | -3.46 | -0.544 |
| CCn1cc(C(=O)O)c(=O)c2cc(F)c(N3CCNCC3)nc21 [Enoxacin] | 1.25 | -1.76 | -0.283 | -0.32 |
| O=C(CNc1ccc2ccccc2c1)N/N=C/c1cc(Br)c(O)c(Br)c1O | 2.68 | -0.0731 | 0.0663 | -0.443 |
| CN1CCCN(C(=O)c2cccc(-c3ccc(/C=C4/C(=O)Nc5ccc(Cl)cc54)o3)c2)CC1 | -17.8 | -6.55 | -6.21 | 1.71 |
| CC(=O)c1c(C)c2cnc(Nc3ccc(N4CCNCC4)cn3)nc2n(C2CCCC2)c1=O | -1.11 and -1.69 |  |  |  |
| N#Cc1c(O)c2c(-c3ccc(-c4ccccc4O)cc3)csc2[nH]c1=O | -0.0955 | 0.618 | 0.484 | 0.802 |
